Results as given in patent publication US20100330604A1, “QUANTIFICATION OF CHANGES IN THE DEGREES OF ORDER OF CELLULAR AND VIRAL MEMBRANES AND APPLICATIONS TO DIAGNOSIS, TREATMENT AND DRUG SCREENING” (priority 2007, published 2010).

How the values were obtained:
[1] = 6-week atorvastatin 40 mg, hyperlipidemic patients
platelets = settings: after statin treatment, 4 patients; compared value 14.9+/-0.3; p=0.12, non significant

CC(C)c1c(C(=O)Nc2ccccc2)c(-c2ccccc2)c(-c2ccc(F)cc2)n1CC[C@@H](O)C[C@@H](O)CC(=O)O [atorvastatin]
total cholesterol, LDL, and triglyceride plasma levels [1]: normalized | 530/30 nm band path of the di-4-ANEPPDHQ spectrum (platelets): 16.1+/−0.3
